Assay [1] deals with T1, phosphoglycerate kinase 1 (human (endogenous in HEK293T)) (UniProt P00558).
T1 sequence: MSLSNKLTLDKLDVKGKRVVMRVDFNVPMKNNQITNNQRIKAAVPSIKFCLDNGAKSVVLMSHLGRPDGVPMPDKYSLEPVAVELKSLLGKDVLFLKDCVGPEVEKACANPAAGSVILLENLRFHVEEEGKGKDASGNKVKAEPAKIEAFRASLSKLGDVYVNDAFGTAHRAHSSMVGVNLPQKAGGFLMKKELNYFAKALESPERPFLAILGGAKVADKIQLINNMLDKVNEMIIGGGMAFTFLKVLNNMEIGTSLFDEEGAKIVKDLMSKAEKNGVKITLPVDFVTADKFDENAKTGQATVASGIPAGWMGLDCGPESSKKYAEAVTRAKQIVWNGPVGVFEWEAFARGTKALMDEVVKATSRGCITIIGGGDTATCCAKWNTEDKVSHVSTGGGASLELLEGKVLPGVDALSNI
Description: co-IP; immunoprecipitation of PGK1 from HEK293T lysates, without or with LPS (Figure 6D); Western blot.

Chains of the proteins cited; added tags and fusions are not shown. Lines headed by an entry give the natural chain unless they say otherwise; changes in a name come on top. A line that says so, or that is headed by a name, gives the form on record, which may keep a tag or linker. Residues count along the entry.
UniProt Q04206: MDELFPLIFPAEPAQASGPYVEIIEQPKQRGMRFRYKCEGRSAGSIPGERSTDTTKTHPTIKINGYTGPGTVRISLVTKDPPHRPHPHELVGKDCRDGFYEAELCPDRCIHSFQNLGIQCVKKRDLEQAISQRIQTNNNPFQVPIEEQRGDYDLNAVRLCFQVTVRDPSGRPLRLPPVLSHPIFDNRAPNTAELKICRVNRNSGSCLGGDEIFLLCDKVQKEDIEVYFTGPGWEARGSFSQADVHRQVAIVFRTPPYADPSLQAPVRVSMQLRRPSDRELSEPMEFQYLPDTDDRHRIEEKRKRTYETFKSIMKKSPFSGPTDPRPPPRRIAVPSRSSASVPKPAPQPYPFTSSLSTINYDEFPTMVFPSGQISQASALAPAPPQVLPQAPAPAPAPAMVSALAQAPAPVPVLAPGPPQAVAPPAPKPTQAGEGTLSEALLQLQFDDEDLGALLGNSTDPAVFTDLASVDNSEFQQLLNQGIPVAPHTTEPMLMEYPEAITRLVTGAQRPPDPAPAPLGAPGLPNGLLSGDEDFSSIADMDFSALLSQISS
UniProt P61586: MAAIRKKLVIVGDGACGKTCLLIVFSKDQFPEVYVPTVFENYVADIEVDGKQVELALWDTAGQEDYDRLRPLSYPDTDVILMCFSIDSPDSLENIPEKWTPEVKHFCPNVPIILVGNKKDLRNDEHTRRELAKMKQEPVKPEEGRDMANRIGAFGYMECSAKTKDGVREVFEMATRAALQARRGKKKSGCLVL
UniProt Q9QUI0: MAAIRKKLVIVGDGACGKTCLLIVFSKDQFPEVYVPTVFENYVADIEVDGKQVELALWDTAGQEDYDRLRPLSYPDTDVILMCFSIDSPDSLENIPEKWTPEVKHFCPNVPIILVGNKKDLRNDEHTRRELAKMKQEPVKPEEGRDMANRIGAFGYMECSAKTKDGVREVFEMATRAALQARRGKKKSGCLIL
PKM1 (P14618-2, form named): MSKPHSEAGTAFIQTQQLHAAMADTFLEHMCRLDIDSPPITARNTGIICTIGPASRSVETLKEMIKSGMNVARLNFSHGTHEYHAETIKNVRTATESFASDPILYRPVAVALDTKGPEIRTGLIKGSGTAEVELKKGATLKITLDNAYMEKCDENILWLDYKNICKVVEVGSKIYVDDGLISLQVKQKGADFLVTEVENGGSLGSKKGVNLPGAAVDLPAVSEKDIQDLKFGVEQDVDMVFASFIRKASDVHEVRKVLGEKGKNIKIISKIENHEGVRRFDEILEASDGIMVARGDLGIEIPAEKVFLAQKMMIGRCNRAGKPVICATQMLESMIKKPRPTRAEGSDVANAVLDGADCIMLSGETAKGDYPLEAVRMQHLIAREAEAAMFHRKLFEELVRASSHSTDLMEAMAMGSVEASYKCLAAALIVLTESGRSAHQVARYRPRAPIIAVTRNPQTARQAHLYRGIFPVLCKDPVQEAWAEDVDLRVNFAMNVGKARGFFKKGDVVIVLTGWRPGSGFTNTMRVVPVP
UniProt O75116: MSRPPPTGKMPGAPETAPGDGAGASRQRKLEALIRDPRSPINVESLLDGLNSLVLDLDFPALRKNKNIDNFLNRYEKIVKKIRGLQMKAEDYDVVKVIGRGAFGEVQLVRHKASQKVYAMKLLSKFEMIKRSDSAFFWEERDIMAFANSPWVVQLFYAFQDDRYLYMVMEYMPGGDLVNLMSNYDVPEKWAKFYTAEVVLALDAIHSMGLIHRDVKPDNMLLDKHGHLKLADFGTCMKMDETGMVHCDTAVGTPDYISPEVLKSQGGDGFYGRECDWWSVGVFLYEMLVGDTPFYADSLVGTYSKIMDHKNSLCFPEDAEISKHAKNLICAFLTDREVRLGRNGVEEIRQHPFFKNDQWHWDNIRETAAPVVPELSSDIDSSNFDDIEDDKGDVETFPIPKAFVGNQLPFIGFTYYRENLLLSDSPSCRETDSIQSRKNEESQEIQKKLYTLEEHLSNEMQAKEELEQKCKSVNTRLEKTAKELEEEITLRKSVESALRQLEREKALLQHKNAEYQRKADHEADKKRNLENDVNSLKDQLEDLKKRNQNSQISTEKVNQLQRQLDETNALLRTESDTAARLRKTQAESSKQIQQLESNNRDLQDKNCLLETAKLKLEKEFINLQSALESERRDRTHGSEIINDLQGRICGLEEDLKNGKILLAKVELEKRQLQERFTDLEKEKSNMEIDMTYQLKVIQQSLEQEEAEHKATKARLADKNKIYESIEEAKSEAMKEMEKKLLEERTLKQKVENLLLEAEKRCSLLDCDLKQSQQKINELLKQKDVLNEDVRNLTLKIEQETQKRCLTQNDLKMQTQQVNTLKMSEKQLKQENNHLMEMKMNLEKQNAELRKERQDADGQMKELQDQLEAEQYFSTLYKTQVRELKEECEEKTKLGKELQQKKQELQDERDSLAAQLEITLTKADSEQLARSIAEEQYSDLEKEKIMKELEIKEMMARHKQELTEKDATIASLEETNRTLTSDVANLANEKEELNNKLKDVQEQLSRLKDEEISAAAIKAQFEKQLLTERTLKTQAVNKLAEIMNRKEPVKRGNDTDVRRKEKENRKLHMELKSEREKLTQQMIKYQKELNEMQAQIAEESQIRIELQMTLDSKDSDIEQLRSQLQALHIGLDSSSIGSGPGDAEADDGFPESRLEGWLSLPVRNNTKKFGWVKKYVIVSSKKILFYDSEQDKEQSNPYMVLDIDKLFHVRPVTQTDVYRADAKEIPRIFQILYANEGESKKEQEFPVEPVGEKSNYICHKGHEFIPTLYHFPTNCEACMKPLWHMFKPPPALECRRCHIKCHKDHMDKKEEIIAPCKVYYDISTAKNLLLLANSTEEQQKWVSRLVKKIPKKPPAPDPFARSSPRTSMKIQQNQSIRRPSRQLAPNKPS
UniProt P25799, residues 1-431: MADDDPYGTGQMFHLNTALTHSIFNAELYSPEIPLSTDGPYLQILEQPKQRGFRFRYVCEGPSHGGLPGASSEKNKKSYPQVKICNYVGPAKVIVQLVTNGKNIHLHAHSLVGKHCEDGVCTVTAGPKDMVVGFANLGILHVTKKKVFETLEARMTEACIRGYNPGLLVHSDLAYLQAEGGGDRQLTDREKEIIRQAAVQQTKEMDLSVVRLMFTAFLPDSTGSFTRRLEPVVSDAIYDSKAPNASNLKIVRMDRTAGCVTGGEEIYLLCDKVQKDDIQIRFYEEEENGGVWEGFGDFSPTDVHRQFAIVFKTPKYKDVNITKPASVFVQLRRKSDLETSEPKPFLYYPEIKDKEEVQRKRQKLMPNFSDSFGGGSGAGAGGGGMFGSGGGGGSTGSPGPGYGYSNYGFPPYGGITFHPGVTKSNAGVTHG
UniProt P35222: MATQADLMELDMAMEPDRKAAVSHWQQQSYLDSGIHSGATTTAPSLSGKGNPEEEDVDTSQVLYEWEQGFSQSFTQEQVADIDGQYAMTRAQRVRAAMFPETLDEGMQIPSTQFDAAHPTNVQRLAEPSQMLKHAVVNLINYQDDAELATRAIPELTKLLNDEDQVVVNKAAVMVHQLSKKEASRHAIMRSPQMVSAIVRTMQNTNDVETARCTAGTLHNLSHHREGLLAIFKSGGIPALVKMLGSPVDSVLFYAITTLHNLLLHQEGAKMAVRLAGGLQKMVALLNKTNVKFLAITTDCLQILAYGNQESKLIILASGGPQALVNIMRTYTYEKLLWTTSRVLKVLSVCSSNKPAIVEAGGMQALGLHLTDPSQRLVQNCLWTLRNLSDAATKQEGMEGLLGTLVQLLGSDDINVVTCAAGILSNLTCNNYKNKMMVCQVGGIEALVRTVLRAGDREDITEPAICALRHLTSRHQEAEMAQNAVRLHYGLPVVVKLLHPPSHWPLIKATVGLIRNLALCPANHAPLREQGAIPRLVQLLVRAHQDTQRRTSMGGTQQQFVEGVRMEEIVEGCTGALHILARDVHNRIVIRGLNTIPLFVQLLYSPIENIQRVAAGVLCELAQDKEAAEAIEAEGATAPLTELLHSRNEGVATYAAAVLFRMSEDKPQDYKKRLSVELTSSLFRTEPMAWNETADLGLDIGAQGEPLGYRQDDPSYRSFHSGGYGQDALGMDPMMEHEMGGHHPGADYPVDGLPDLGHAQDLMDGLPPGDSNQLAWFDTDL

Assay [2] deals with p-Ser536 p65/RelA (HEK293T) (human (endogenous in HEK293T)) (UniProt Q04206). Description: co-IP; immunoprecipitation with p-p65 antibodies from HEK293T lysates, serum-free 8 h, LPS 10 μg/mL 4 h (Figure 5D); Western blot. (In general: In western blotting, separated proteins are transferred to a membrane and probed.)
The target of assay [3] is p-Tyr42 RhoA (HEK293T) (human (endogenous in HEK293T)) (UniProt P61586). The assay is described as follows: co-IP; immunoprecipitation with p-Tyr42 RhoA antibodies from HEK293T lysates, without or with LPS (Figure 2F; Figure 5E: 10 μg/mL LPS, 4 h); Western blot.
For assay [4], the target named is p-Tyr42 RhoA (4T1, RAW264.7) (mouse (endogenous in 4T1 and RAW264.7)) (UniProt Q9QUI0). The assay is described as follows: co-IP; immunoprecipitation with p-Tyr42 RhoA antibodies from 4T1 lysates, without or with LPS (Figure 2G); Western blot.
Another assay deals with HA-RhoA WT (UniProt P61586). Description: co-IP; immunoprecipitation with HA antibodies from HEK293T cells transfected with HA-p65 or HA-RhoA constructs (2 μg/mL, 24 h), serum-depleted 8 h, stimulated with LPS (Figure 2I,J); Western blot.
A further assay has as its target HA-RhoA Y42E (UniProt P61586). Described as above.
The next assay has as its target HA-p65 S536D (human) (UniProt Q04206). Described as above.
In a further assay the target is HA-p65 WT (human) (UniProt Q04206). The assay is described as above.

No constants are given. Whether binding was seen depends on the method and setting. In cells and extracts the contact can be indirect. Some entries that bind do so weakly or less than the wild type.

On to “PKM1 (from UniProt P14618-2 1-531) (enzyme)”, for which the binding result in assay [1] is reported as “binds”.

As for “PKM2 (from UniProt P14618-1 1-531) (enzyme)”, the binding entry in assay [1] was “binds”.

As for “ROCK2 (from UniProt O75116 1-1388) (enzyme)”, the binding result in assay [2] and in assay [3] was “binds” throughout.

As for p50 (4T1) (from UniProt P25799 1-431), the binding entry in assay [4] was “binds”.

“p-Ser536 p65/RelA (HEK293T) (from UniProt Q04206 1-551)”: the binding entry (in assay [3]; in the assay with HA-RhoA WT; with HA-RhoA Y42E) was “binds” throughout.

Turning to “p-Tyr42 RhoA (HEK293T) (from UniProt P61586 1-193)”, the binding result in the assay with HA-p65 S536D (human) and in the assay with HA-p65 WT (human) was “binds” in each case.

On to β-catenin (from UniProt P35222 1-781), for which the binding result in assay [1] was “binds”.

These data come from article PMC10740983.
